Experimental data: article PMC12040169 (PLOS Biology, 2025)
The list shows a part of the results.

The compounds below were run on T1, CTL2-GFP (C. trachomatis L2/434/Bu, GFP-expressing). Details: bulk GFP, single well; 28.5 h, 10 µM; inhibitor.
T1 construct: L2/434/Bu, GFP-expressing
Set-up: species or system HeLa; Intracellular C. trachomatis growth in HeLa cells, bulk GFP fluorescence relative to DMSO

SMILES | % of control remaining [%]
CC(C)(Oc1ccc(Cl)cc1)C(=O)O/N=C(\N)c1ccc(I)cc1 [CBK268760] | 161.534
O=C(Nc1ccc(OC(F)F)cc1)Nc1ncc(Br)c2cccnc12 [CBK107635] | 201.65
Cc1noc(C)c1C(=O)NC1Cc2ccccc2C1 [CBK200350] | 125.894
Cc1nc2ccc(C(=O)OCc3ccc(S(=O)(=O)Cc4ccccc4)cc3)cc2nc1C [CBK269661] | 126.912
COC(=O)c1ccc(-c2ccsc2)nc1 [CBK149229] | 123.779
O=C(O)C1CCN(c2cncc(-c3ccc(F)cc3F)n2)CC1 [CBK065899] | 151.112
COc1ccc(CN2CCC(Cc3ccccc3-c3ccc(C)cc3C)(C(=O)O)CC2)cc1 [CBK286421] | 127.226
COc1ccc(C2(NCc3cn(CC(N)=O)c4ccccc34)CC2)cc1 [CBK282833] | 90.2488
COc1cccc(N2N=C3NNC(N)=C3N2)c1 [CBK093665] | 106.353
COc1ccc(C(=O)N2CC[C@H]3NC(=O)N(Cc4ccccc4)C(=O)[C@H]32)cc1 [CBK289293] | 129.214
Cc1ccc(S(=O)(=O)Nc2ccc3c(ccn3CCC3CCN(C(=O)OC(C)(C)C)CC3)c2)cc1Cl [CBK172990] | 105.812
N#CCCN(C(=O)NCc1c(Cl)cccc1Cl)C1CCCCC1 [CBK156371] | 95.3504
CC1(C)C(CC(=O)NC2CCCCC2)CC1C(=O)NC1CCCCC1 (stereo not drawn) [CBK009260] | 141.787
CN(C)CCNC(=O)Cn1c(-c2cccs2)cc2cccnc21 [CBK282555] | 115.349
O=S(=O)(Cc1noc([C@@H]2C[C@@H](O)CN2Cc2ccc(F)cc2)n1)c1ccc(F)cc1 [CBK288831] | 100.86
CN1CCN(CC2(Cn3ccnc3-c3ccc(C(=O)O)cc3)CC2)CC1 [CBK307641] | 135.302
O=C(Nc1ccc(S(=O)(=O)Nc2nccc(/C=C/c3ccc(Cl)cc3)n2)cc1)c1ccc(Br)cc1 [CBK263500] | 127.294
CC(=O)Nc1ccc(C(=O)N2CCCC2c2cccc(Cc3ccc(Cl)cc3)n2)cc1 (stereo not drawn) [CBK286144] | 106.256
CCOC(=O)C1=C(C)NC(=O)NC1c1cccs1 (stereo not drawn) [CBK086430] | 124.964
c1ccc(CNC2CCc3[nH]c4ccccc4c3C2)cc1 (stereo not drawn) [CBK091587T] | 138.964
Cc1nc(N)nc(NCCC2CCCN(C)C2)c1Cl (stereo not drawn) [CBK307445] | 122.789
CC(=O)N1C[C@@H]2CCCCN(CC(=O)NC3CC3)[C@@H]2C1 [CBK285508] | 107.364
CCCc1nn(CC(=O)NC(C)C)c(=O)c2cc3ccsc3n12 [CBK284147] | 122.02
Cc1cc(=O)oc2cc(SCc3ccc(SC(F)(F)F)cc3)ccc12 [CBK002897] | 93.6289
CCc1ccc(C(O)CNC2CCN(C3CCCCC3)CC2)cc1 (stereo not drawn) [CBK304604] | 144.482
NS(=O)(=O)c1cnc(Cl)c(Br)c1 [CBK034079] | 111.272

SMILES | % of control remaining [%]
O=C(NCCCc1ccc(F)cc1)c1cccc(N2CCCC2=O)c1 [CBK282684] | 109.492
O=C(O)CC(CNC(=O)Cc1c[nH]c2ccccc12)c1ccc(Cl)cc1 (stereo not drawn) [CBK286598] | 115.899
O=C(NC1CC2CCC(C1)N2Cc1ccccc1)c1cccc(Cl)c1 (stereo not drawn) [CBK116291] | 106.554
CN1CCN(C(=O)CN(Cc2ccc(Cl)cc2)S(=O)(=O)c2ccc(Br)cc2)CC1 [CBK265771] | 140.728
Cc1ccc(S(=O)(=O)Nc2nc3ccccc3nc2Nc2ccc(C(=O)O)cc2)cc1C [CBK300516] | 145.177
COCc1cc(O)nc(Cc2c(Cl)cccc2Cl)n1 [CBK022389] | 100
CCOc1ccc(-c2cncc(Nc3ccc4c(c3)OC(F)(F)C(F)(F)O4)n2)cc1 [CBK065728] | 126.123
COc1ccc(N2CCN(c3cc(-c4cccc([N+](=O)[O-])c4)ncn3)CC2)cc1OC [CBK091031] | 150.132
CCN(CC)CC(O)Cn1ccc(-c2cccs2)n1 (stereo not drawn) [CBK005967] | 136.11
COc1ccc(CN2CCC(c3ncc(C(=O)Nc4ccc(F)cc4)c(C)n3)CC2)cc1 [CBK285629] | 94.7488
NC(=O)c1cccc(CN2CCOC3(CCN(C(=O)OCc4ccccc4)CC3)C2)c1 [CBK161100T] | 127.959
O=C(COc1ccc(-c2ccccc2)cc1Cl)N1CCN(C(=O)C2CC2)CC1 [CBK295640] | 102.485
CC(C)(C)OC(=O)N(c1cncc(N2CCNCC2)n1)[C@@H]1CCOc2ccccc21 [CBK172251G] | 130.53
O=c1c(-c2nncn2-c2ccccc2)coc2c(O)c(O)ccc12 [CBK266889] | 153.194
CC(=O)[C@H]1C[C@@H](CC(=O)Nc2cc3cccnc3nc2Cl)C1(C)C [CBK091351] | 128.961
Cc1nc(CC(=O)N2CCC[C@@H]3[C@H]2CCCCc2ccccc2OCC(=O)N3C)cs1 [CBK292091] | 83.6459
Cn1ncc2c(NCCCC3CCOC3)nc(C(C)(C)C)nc21 (stereo not drawn) [CBK307363] | 110.18
O=C(c1nccs1)C1CCN(C(=O)C2CCCCC2)CC1 [CBK284175] | 106.679
O=C(O)[C@H]1CN(C(=O)c2cccs2)C[C@@H]1c1ccc(F)cc1 [CBK283734] | 151.661
O=C(O)CCC(=O)Nc1ccc(C(=O)N2CCCc3ccccc32)cc1 [CBK269118] | 81.2756
COc1ccccc1-c1nnc(SCC(=O)Nc2nccs2)o1 [CBK287390] | 107.467
COc1cc(C2C3=C(CC(C)(C)CC3=O)Nc3ncnn32)cc(OC)c1OC (stereo not drawn) [CBK265646] | 127.374
CC(Oc1ccc(F)cc1)C(=O)N(C)CC1(C)COC1 (stereo not drawn) [CBK281702] | 123.961
CCCC1CCN(c2ncnc(Oc3ccc(C(=O)c4ccc(F)cc4)cc3)c2[N+](=O)[O-])CC1 [CBK116495] | 92.4138
C1CN(c2nc(N3CCOCC3)nc(N3CCOCC3)n2)CCN1 [CBK261380] | 100
Cn1cc(CCCC(=O)NCCC2=CCCCC2)c2ccccc21 [CBK061756] | 100.935

Three compounds drawn at random from those above:
SMILES | % of control remaining [%]
CCOC(=O)C1=C(C)NC(=O)NC1c1cccs1 (stereo not drawn) [CBK086430] | 124.964
c1ccc(CNC2CCc3[nH]c4ccccc4c3C2)cc1 (stereo not drawn) [CBK091587T] | 138.964
NC(=O)c1cccc(CN2CCOC3(CCN(C(=O)OCc4ccccc4)CC3)C2)c1 [CBK161100T] | 127.959

Carrying on:

SMILES | % of control remaining [%]
C1=CC2N=C(SCc3ccccc3)OC2C=C1 (stereo not drawn) [CBK021412] | 138.983
O=C(Nc1cccc(Oc2ccccc2)c1)c1ccc2[nH]ccc2c1 [CBK161728] | 84.7339
COc1cnc(-c2ccccc2OC)c(NC(=O)c2ccccc2)n1 [CBK145261] | 143.937
O=C(NC(=S)Nc1ccc(C(=O)O)c(Cl)c1)c1ccc(-c2ccc(Cl)cc2)o1 [CBK265063] | 93.2685
CN(c1ccccc1)c1cc(-c2cccc(O)c2)nc2ccnn12 [CBK037121] | 88.1887
COc1ccc(CCNC(=O)N2CCN(C3CCN(C)CC3)CC2)cc1OC [CBK155897] | 131.005
O=C(CC1(C(=O)O)CCCC1)NC1CCS(=O)(=O)C1 (stereo not drawn) [CBK286855] | 128.37
CN(C)CCn1c(=O)c2c(ncn2C)n(C)c1=O [CBK012590] | 101.954
CCc1[nH]nc(C)c1Cc1c(Cl)cccc1Cl [CBK093598] | 93.0579
CC(C)CNc1nc(-c2cccnc2)cnc1N [CBK063780] | 173.683
Cc1ccc2c(c1)C(Oc1cncc(N3CCNCC3)n1)CCO2 (stereo not drawn) [CBK172334G] | 114.813
COc1ccc(C(=O)Nc2ccc3c(c2)C(=O)N(CCC(=O)O)C3=O)cc1 [CBK265921] | 100
O=C(Cn1c[n+]([N-][N+](=O)[O-])cn1)Nc1ncc(Br)cc1Br [CBK262342] | 100
Cc1ccc(CN2CCC(O)(Cn3ccc4ncccc43)CC2)o1 [CBK284751] | 143.11
Cc1ccc(NS(=O)(=O)c2cc3c(OC4CCNCC4)nccc3s2)cc1 [CBK046309C] | 112.228
O=C(Nc1ccccc1)c1ccc(COc2ccc3ccccc3c2)o1 [CBK265897] | 98.8422
Fc1ccc(CN2CC3CCCC(C2)C3N2CCOCC2)cc1F (stereo not drawn) [CBK282270] | 87.7751
NS(=O)(=O)c1ccc(NC(=S)NNC(=S)Nc2ccc(F)cc2F)cc1 [CBK267102] | 140.122
Cn1cncc1CN(Cc1ccccc1)C1CC(C)(C)NC(C)(C)C1 [CBK283226] | 131.828
COc1ccc(OC)c(-c2nc(Nc3ccc(Cl)cc3Cl)sc2CC(=O)O)c1 [CBK264175] | 93.3723
CN(CC1COc2ccccc2O1)C(=O)CC1CCN(C(=O)CC2CCCCC2)CC1 (stereo not drawn) [CBK286265] | 116.887
O=C1C=C([C@@H]2O[C@H](CO)[C@H](O)C2O)C(=O)N1 (stereo partly drawn) [CBK201255] | 134.772
COc1ccc(CC(=O)NC(c2nnc3ccccn23)C(C)C)cc1 (stereo not drawn) [CBK304607] | 112.462
CCOc1ccccc1-c1noc(-c2nn(-c3ccc(C)cc3)ccc2=O)n1 [CBK288597] | 113.581
CC1CCCN(C(=O)c2coc(COc3ccc(F)cc3)n2)C1 (stereo not drawn) [CBK306874] | 132.464
O=C(O)c1ccc2c(c1)CCN2S(=O)(=O)c1ccc(S(=O)(=O)N2CCOCC2)cc1 [CBK295625] | 148.412
